Data on two molecules can be found in PMC7528018, “Structure of the TFIIIC subcomplex τA provides insights into RNA polymerase III pre-initiation complex formation” (Nature Communications, 2020).

These are yes or no findings as the source states them, for the method shown. Some binding calls cover weakened binding; strength is not graded here.

For experiment [1], the target named is T1, τ131 (subunit of τA) (S. cerevisiae) (UniProt P33339).
T1 sequence: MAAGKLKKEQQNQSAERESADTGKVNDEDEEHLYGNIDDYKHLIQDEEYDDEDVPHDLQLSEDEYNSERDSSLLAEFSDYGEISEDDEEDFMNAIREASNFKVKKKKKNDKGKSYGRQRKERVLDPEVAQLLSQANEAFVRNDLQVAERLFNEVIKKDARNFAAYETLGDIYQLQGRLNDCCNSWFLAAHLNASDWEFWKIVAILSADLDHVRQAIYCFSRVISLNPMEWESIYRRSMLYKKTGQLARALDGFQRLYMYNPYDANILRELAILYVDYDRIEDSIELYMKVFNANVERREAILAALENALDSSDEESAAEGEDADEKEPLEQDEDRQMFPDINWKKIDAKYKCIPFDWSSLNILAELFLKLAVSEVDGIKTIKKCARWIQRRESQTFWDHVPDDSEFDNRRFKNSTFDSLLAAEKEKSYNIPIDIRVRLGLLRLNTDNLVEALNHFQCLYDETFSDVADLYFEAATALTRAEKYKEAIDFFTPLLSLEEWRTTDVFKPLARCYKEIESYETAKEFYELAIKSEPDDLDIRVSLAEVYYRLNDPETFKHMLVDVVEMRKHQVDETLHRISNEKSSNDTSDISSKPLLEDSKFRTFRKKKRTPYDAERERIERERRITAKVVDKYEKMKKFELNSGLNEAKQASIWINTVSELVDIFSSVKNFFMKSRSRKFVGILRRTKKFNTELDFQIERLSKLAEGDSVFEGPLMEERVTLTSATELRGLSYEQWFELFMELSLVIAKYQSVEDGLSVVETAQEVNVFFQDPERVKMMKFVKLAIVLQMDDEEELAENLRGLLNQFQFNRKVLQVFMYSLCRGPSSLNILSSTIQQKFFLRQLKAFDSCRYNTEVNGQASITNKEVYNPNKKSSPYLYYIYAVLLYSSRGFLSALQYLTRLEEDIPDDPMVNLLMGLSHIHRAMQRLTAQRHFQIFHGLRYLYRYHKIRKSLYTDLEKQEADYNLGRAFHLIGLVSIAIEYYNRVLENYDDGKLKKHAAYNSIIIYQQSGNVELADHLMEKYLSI
The experiment can be described thus: cryo-EM structure; τA at 3.1 Å; sample of τA, His_upstream_Abox DNA, Brf1–TBP and Bdp1 at 75 mM NaCl, 4 mM CHAPSO added before freezing; only τA seen in the density; both purified.

Experiment [2] deals with T2, τ95 (subunit of τA) (S. cerevisiae) (UniProt P32367).
T2 sequence: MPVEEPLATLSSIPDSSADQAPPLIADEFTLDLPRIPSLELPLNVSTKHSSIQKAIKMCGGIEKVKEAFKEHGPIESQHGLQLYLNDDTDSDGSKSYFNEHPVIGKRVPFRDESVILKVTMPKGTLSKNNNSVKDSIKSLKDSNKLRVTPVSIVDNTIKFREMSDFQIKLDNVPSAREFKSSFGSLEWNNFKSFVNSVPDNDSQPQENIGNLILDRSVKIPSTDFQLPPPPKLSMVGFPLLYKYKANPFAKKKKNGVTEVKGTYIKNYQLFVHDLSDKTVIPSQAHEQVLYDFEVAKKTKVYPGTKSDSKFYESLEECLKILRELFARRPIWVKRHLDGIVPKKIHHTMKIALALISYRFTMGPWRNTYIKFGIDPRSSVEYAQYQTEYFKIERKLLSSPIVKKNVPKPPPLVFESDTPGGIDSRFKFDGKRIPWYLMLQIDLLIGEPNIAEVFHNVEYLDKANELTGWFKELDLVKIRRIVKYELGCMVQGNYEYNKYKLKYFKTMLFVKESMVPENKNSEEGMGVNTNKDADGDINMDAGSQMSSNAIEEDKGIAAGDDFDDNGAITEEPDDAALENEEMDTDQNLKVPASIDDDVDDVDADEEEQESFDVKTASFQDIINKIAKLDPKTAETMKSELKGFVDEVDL
Described as above.

B1: τ55 (subunit of τA) (protein, UniProt Q12415 1-435)
chain: MVVNTIYIARHGYRSNWLPEGPYPDPLTGIDSDVPLAEHGVQQAKELAHYLLSLDNQPEAAFASPFYRCLETVQPIAKLLEIPVYLERGIGEWYRPDRKPVIPVPAGYEILSKFFPGVISQEWDSTLTPNEKGETEQEMYMRFKKFWPLFIERVEKEYPNVECILLVTHAASKIALGMSLLGYDNPRMSLNENGDKIRSGSCSLDKYEILKKSYDTIDETDDQTSFTYIPFSDRKWVLTMNGNTEFLSSGEEMNWNFDCVAEAGSDADIKKRQMTKKTSSPIPEADDQTEVETVYISVDIPSGNYKERTEIAKSAILQYSGLETDAPLFRIGNRLYEGSWERLVGTELAFPNAAHVHKKTAGLLSPTEENETTNAGQSKGSSTANDPNIQIQEEDVGLPDSTNTSRDHTGDKEEVQSEKIYRIKERIVLSNVRPM
As to B1, the binding entry in experiment [1] and in experiment [2] was “binds” in each case.

B2: τ95 (subunit of τA) (protein, UniProt P32367 1-649)
chain: T2 sequence
Consider B2, for which, in experiment [1], the binding result was “binds”.
